The values are deposited in ChEMBL (CHEMBL3988442, “University of Dundee, Small-Polar-MMV Screening Library” (2021)).

Chains of the proteins cited; added tags and fusions are not shown.
UniProt P9WFT3, whole entry: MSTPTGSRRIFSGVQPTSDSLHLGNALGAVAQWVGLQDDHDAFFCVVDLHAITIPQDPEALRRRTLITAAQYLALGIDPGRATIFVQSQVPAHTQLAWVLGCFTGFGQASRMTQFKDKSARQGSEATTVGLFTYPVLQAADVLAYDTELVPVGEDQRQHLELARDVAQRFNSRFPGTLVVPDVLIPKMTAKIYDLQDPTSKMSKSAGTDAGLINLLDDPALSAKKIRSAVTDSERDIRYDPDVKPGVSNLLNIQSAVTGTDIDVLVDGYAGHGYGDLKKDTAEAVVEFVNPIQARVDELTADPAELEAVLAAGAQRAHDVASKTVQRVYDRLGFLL
UniProt P9WNZ1, whole entry: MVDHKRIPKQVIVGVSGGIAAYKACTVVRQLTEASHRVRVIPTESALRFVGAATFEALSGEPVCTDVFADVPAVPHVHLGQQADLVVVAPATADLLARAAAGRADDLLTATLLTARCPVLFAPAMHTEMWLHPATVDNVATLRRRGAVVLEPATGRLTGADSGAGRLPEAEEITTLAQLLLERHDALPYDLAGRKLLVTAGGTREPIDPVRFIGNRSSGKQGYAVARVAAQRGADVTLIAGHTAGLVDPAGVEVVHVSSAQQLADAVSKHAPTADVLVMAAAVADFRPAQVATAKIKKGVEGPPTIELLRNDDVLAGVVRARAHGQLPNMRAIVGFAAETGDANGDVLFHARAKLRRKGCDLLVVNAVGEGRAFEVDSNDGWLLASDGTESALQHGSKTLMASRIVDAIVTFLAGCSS

MtTrpRS: 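Enzyme assay of tryptophanyl-tRNA synthetase; the read-out is not stated. Target: Tryptophan-tRNA ligase, Mycobacterium tuberculosis (UniProt P9WFT3). Tested at 10 µM. Higher most likely means stronger inhibition; the record gives no direction and few retests gave an IC50. Size under these conditions: about 65,000 compounds, about 64 of them at 50% or above in at least one test.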
CoaBC: 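Coenzyme A biosynthesis protein CoaBC, Mycobacterium tuberculosis (UniProt P9WNZ1). Enzyme assay of CoaBC with a phosphate dye (Biomol Green) read at 650 nm. Compounds at 30 µM. Higher reads as stronger inhibition, judged from the few compounds that gave an IC50. Most strong results did not repeat in a second test. About 67,000 compounds were tested under these conditions; 0.06% (about 40) showed 50% or more at least once.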

Results are given as percent effect. The controls that fix the scale are not given in the record; negative values are as filed. Compounds were drawn at random from those tested, without regard to their results. A dash means the value is not listed here; it may have been measured.

| SMILES | MtTrpRS | CoaBC |
|---|---|---|
| `O=C(CCC(=O)c1cccs1)NC1(C(=O)NCC2CC2)CCCC1` | -6.901 | -5.645 |
| `CN1CCCN(C(=O)c2nnn(-c3ccc(C(F)(F)F)cc3)n2)CC1` | 0.076 | -23.47 |
| `Cn1cc(C(=O)N2CCCC(Cc3nccs3)C2)cn1` (stereo unspecified) | 0.9167 | 0.6545 |
| `CNS(=O)(=O)c1cccc(CNCc2ccsc2)c1` | -6.989 | -7.143 |
| `Cc1ccc(F)c(N2CCCC(NS(=O)(=O)CCCF)C2=O)c1` (stereo unspecified) | -6.989 | -3.968 |
| `Cc1nc2n(n1)CC(NCc1cc(Cl)c3c(c1)OCCCO3)CC2` (stereo unspecified) | 3.216 | 7.179 |
| `CCCN1CCN(C(=O)c2cccnc2)CC1` | -2.415 | 15.6 |
| `CC(CNC(=O)c1cc(Cn2cnc3ccccc32)[nH]n1)N1CCCC1` (stereo unspecified) | 1.234 | 9.939 |
| `Cc1cccc(NC(=O)C2CSCN2C(=O)c2cnccn2)c1C` (stereo unspecified) | 2.406 | -0.5263 |
| `CNC(=O)N1CCC2(CC1)c1ncc(C)n1CCN2C` | - | 3.03 |
| `Cc1cccc(-n2nc(CC(C)C)nc2CS(C)(=O)=O)c1` | 4.103 | -0.4914 |
| `CS(=O)(=O)NC1CCCN(C(=O)NCc2cccc(F)c2)C1` (stereo unspecified) | 0.5016 | -1.828 |
| `c1cc(C2CN(C3CCCCC3)C2)n[nH]1` | 9.635 | 0.4785 |
| `O=C(NCCNC1CCCC1)c1cccs1` | -1.412 | -1.112 |
| `CCN(C)S(=O)(=O)NCC1(c2ccccc2Br)CC1` | 1.975 | 2.451 |
| `COc1ccc(CC(C)(O)CNC(=O)Cc2cccs2)cc1` (stereo unspecified) | 14.75 | -0.8403 |
| `Cc1ccc(C2CN(CCCC#N)CCO2)c(C)c1` (stereo unspecified) | -5.718 | -1.381 |
| `Cc1ccc(CNC(=O)N2CCCCC2CCNS(C)(=O)=O)cc1` (stereo unspecified) | -5.186 | -1.493 |
| `COCCN1CCOCC12CCN(Cc1ccn(C)n1)CC2` | 3.032 | 0 |
| `O=C1C(N2CC[C@@H](O)C2)CCCN1Cc1cccc(C(F)(F)F)c1` (stereo partly specified) | -3.52 | -6.65 |
| `O=C(COc1ccccc1NCc1ccc(F)cc1)N1CCOCC1` | 2.97 | 5.216 |
| `Cc1nc2cc(O)nn2c(C)c1CCC(=O)NCCc1ccccc1` | 23.95 | -30.32 |
| `CNC(=O)COc1ccc(CNc2cncc(-n3cccn3)n2)cc1` | -3.771 | -18.88 |
| `CCCc1n[nH]c(C2CN(Cc3nnc(C4CCC4)o3)CCO2)n1` (stereo unspecified) | -8.023 | 1.05 |
| `COc1ccc(C(=O)C2CCCN(Cc3ccc(C)o3)C2)c(OC)c1` (stereo unspecified) | -0.4177 | 3.509 |
| `NC(=O)Cn1ccc(O)c(Cc2ccc(Cl)cc2Cl)c1=O` | -3.431 | -3.222 |
| `Cc1ccc(C)c(OCc2cc(C(=O)N(C)Cc3cnn(C)c3)no2)c1` | -3.638 | 3.856 |
| `NCc1ccc(N2CCN(c3ncccn3)CC2)c(F)c1` | 8.14 | -17.2 |
| `O=C([C@H]1CCCO1)N1CCc2ncnc(C3CC3)c2CC1` | -3.98 | 9.412 |
| `Cc1ccc(Nc2nccc(C3CCN(CC(N)=O)C3)n2)nc1` (stereo unspecified) | -3.304 | 0.2433 |
| `O=C(C1CCCO1)N1CCCC2(CCN(c3cccnc3)CC2)C1` (stereo unspecified) | - | 4.242 |
| `Cc1nc(C)n(CC2CCCN2Cc2ncc(-c3ccccc3)o2)n1` (stereo unspecified) | -15.38 | 2.968 |
| `COCC(=O)N1CCCN(C(=O)C2Cc3ccccc3CN2C)CC1` (stereo unspecified) | 3.494 | -7.692 |
| `CN(Cc1nc2ccccc2[nH]1)C(=O)CN(C)c1ccc(Cl)cn1` | -1.398 | 6.012 |
| `COc1cc(C(C)=O)ccc1OCCNCc1ccco1` | -1.732 | -4.859 |
| `O=C1COC2(COCCN(Cc3cccnc3)C2)CN1c1ccccc1` (stereo unspecified) | 1.514 | -1.053 |
| `COCCOc1ccc(NC(=O)N(CCCO)CC(C)(C)C)cn1` | 9.909 | -2.236 |
| `O=C(CN1CCS(=O)(=O)CC1)NC1CCCCc2ccccc21` (stereo unspecified) | 2.02 | 2.056 |
| `C=Cc1ccc(C(=O)NC2CCCc3nc(N(C)C)ncc32)cc1` (stereo unspecified) | -0.1347 | 3.515 |
| `CC(CN1CCOCC1)NC(=O)c1cccc2cn[nH]c12` (stereo unspecified) | 3.349 | 3.797 |
| `O=C(NC[C@]12COC[C@H]1CN(Cc1nccs1)C2)N1CCCC1` | -2.211 | -5.518 |
| `CCOc1ncccc1NC(=O)C1CCS(=O)(=O)C1` (stereo unspecified) | -1.428 | 8.182 |
| `CC(NC(=O)N1CCC1)c1ccc(S(C)(=O)=O)cc1` (stereo unspecified) | 1.088 | 4.151 |
| `CC(C)c1cc(NC(=O)c2ccc(NC3CC3)nc2)[nH]n1` | 0.7194 | 0 |
| `CS(=O)(=O)NCC1CCCN(C(=O)COCc2ccccc2)C1` (stereo unspecified) | -3.044 | 0.7772 |
| `COC(=O)c1ccnn1COc1ccc(Cl)cc1` | -2.994 | -27.86 |
| `CN(C)C(=O)Cc1nc(CN2CCCCC2Cn2cncn2)cs1` (stereo unspecified) | 3.311 | 7.561 |
| `Cc1cc(CNc2cccc(Cl)c2C)no1` | -0.2674 | 2.105 |
| `c1ccc2c3c([nH]c2c1)CN(Cc1cc2n(n1)CCNC2)CC3` | -0.6299 | 4.092 |
| `COCCC1CCCCN1Cc1nc(C2CC2)no1` (stereo unspecified) | -3.936 | 1.085 |
| `COCCc1noc(CN2CC(C)(c3ccccc3)CCC2=O)n1` (stereo unspecified) | -4.16 | 4.925 |
| `CN(Cc1ccc(F)cc1)C(=O)CN1CCOC(Cn2cccn2)C1` (stereo unspecified) | 7.212 | -22.25 |
| `O=C1O[C@@H]2CN(Cc3ccccn3)C[C@@H]2N1CCCc1ccc(F)cc1` | -0.2974 | -4.091 |
| `CN(CC1CCC1)C(=O)Nc1cccnc1-n1cncn1` | 1.854 | 2.317 |
| `CC(=O)N1CCC(C(=O)NCc2cc[nH]n2)(c2ccccc2)CC1` | -1.834 | 4.215 |
| `CC(SCCNS(=O)(=O)c1cnn(C)c1)c1cccc(F)c1` (stereo unspecified) | -3.381 | 4.339 |
| `O=C(CCn1c(C(F)(F)F)cc2cccnc21)N1CCOCC1` | -2.957 | -0.4866 |
| `CC(C)(CNC(=O)Nc1cccc(-c2nccs2)c1)C(N)=O` | 0.4461 | 2.727 |
| `CNc1ncccc1C(=O)N1CCCC2(CCN(C)CC2)CC1` | 1.917 | - |
| `CCn1c(C)cc(C(=O)N2CCC(Nc3ccc(C)nn3)CC2)c1C` | 4.756 | 3.713 |
| `CCOC(=O)N1CCC(NC(=O)Nc2cccnc2OCC)CC1` | 2.328 | -6.971 |
| `Cn1cnnc1C1CCCN(C(=O)CCc2ccc3c(c2)OCO3)C1` (stereo unspecified) | 1.383 | -4.968 |
| `CC(C)CCC(=O)N1CCC2(CC1)OCCO2` | -2.825 | 3.271 |
| `Cc1ncc(C(=O)N2CCCC(n3nc(C)nc3C)C2)c(C(C)C)n1` (stereo unspecified) | -5.096 | -3.069 |
| `Cc1nc(C(C)C)sc1C(=O)NCC(C)(C)N1CCOCC1` | 2.194 | 1.378 |
| `CCCn1ncc(CN(Cc2ccsc2)Cc2ccco2)c1C` | 2.055 | 2.885 |
| `CCc1cnc(C)nc1NCc1cnc2c(c1)CCC2` | 4.129 | 10.1 |
| `Cc1cccc(COc2ccc(NC(=O)C(C)NC(N)=O)c(C)c2)c1` (stereo unspecified) | 2.23 | 1.261 |
| `CC/N=c1/c(NC(=O)NCCOC)c(O)oc2ccccc12` | 1.864 | 6.315 |
| `Cc1cc(C)c2nc(CN3CCOC(CCO)C3)cc(O)c2c1` (stereo unspecified) | -1.316 | -7.036 |
| `Cc1nc(N2CCN(C(=O)C3CCCC3)CC2)c2c(n1)c(C)nn2C` | -1.813 | -6.005 |
| `Cc1cc(C(F)(F)F)nc(CNC(=O)CCC2CCCCN2C)n1` (stereo unspecified) | 4.632 | 0.7444 |
| `COc1ccc(CC(=O)N(C)C2CCN(C)C2=O)cc1F` (stereo unspecified) | 0.2981 | 3.667 |
| `COc1ccnc(N2CCN(CC(=O)N3CCC(C)CC3)CC2)n1` | -3.359 | 4.042 |
| `Cc1cc(CN(C)C(=O)CNS(=O)(=O)c2cccs2)no1` | -3.413 | 4.38 |
| `COc1ccc(CN(C)C(=O)CN2CC(n3cccn3)C2)cc1F` | -2.556 | -2.675 |
| `O=C(c1cc(Cl)c(Br)[nH]1)N1CCN(Cc2ccco2)CC1` | -5.814 | 14 |
| `CN(CC(N)=O)C(=O)c1cn(-c2ccc(Br)cc2)cn1` | 1.815 | 6.375 |
| `Cc1csc(CNCc2c(C)nn(C)c2N2CCOCC2)n1` | -10.86 | 4.943 |

Once more, the final 6:

SMILES,MtTrpRS,CoaBC
COc1ccnc(N2CCN(CC(=O)N3CCC(C)CC3)CC2)n1,-3.359,4.042
Cc1cc(CN(C)C(=O)CNS(=O)(=O)c2cccs2)no1,-3.413,4.38
COc1ccc(CN(C)C(=O)CN2CC(n3cccn3)C2)cc1F,-2.556,-2.675
O=C(c1cc(Cl)c(Br)[nH]1)N1CCN(Cc2ccco2)CC1,-5.814,14
CN(CC(N)=O)C(=O)c1cn(-c2ccc(Br)cc2)cn1,1.815,6.375
Cc1csc(CNCc2c(C)nn(C)c2N2CCOCC2)n1,-10.86,4.943